Drawing on US20180016328A1 (WASHINGTON UNIVERSITY, published 2018), this text covers binding for three molecules.

Test [1] concerns the target tau. Nature of the test: immunoprecipitation, Western blot for tau (FIG. 11D). In general terms: Immunoblotting shows a protein as a band on a membrane.
The target in test [2] is tau. Nature of the test: immunoprecipitation of the antibody, Western blot for tau (FIG. 11D).

These are yes or no findings as the source states them, for the method shown. Binding calls can cover weak binding; strength is not graded here.

B1: HJ8.5 antibody comprising IgG1 (antibody, V domains shown)
VH: EVKVEESGGGLVQPGGSMKLSCVVSGFTFSNYWVNWVRQSPEKGLEWVAQIRLKSDNYATHYEESVKGRFTISRDDSKSSVYLQMNNLRAEDSGIYYCTNWEDYWGQGTTLTVSS
VL: DIVLTQSPASLAVSLGQRATISCRASQSVSTSRYSYIHWYQQKPGQPPKLLIKYASNLESGVPARFSGSGSGTDFTLNIHPLEEEDAATYYCHHSWEIPLTFGAGTKLELK
With B1, the binding result with tau [1] and with tau [2] was “binds” each time.

B2: HJ8.5 antibody comprising IgG2ab (antibody, V domains shown)
VH: EVKVEESGGGLVQPGGSMKLSCVVSGFTFSNYWVNWVRQSPEKGLEWVAQIRLKSDNYATHYEESVKGRFTISRDDSKSSVYLQMNNLRAEDSGIYYCTNWEDYWGQGTTLTVSS
VL: DIVLTQSPASLAVSLGQRATISCRASQSVSTSRYSYIHWYQQKPGQPPKLLIKYASNLESGVPARFSGSGSGTDFTLNIHPLEEEDAATYYCHHSWEIPLTFGAGTKLELK
In the case of B2, the binding result with tau [1] and with tau [2] was “binds” in each case.

B3: HJ8.5 antibody comprising IgG2b (antibody, V domains shown)
VH: EVKVEESGGGLVQPGGSMKLSCVVSGFTFSNYWVNWVRQSPEKGLEWVAQIRLKSDNYATHYEESVKGRFTISRDDSKSSVYLQMNNLRAEDSGIYYCTNWEDYWGQGTTLTVSS
VL: DIVLTQSPASLAVSLGQRATISCRASQSVSTSRYSYIHWYQQKPGQPPKLLIKYASNLESGVPARFSGSGSGTDFTLNIHPLEEEDAATYYCHHSWEIPLTFGAGTKLELK
For the molecule B3, the binding entry with tau [1] and in the test with tau [2] was “binds” in each case.
